Experimental findings from publication PMC8876916 are described below.

Protein sequences, listed by entry. Tags and fused reporters are not part of them.
UniProt P03372: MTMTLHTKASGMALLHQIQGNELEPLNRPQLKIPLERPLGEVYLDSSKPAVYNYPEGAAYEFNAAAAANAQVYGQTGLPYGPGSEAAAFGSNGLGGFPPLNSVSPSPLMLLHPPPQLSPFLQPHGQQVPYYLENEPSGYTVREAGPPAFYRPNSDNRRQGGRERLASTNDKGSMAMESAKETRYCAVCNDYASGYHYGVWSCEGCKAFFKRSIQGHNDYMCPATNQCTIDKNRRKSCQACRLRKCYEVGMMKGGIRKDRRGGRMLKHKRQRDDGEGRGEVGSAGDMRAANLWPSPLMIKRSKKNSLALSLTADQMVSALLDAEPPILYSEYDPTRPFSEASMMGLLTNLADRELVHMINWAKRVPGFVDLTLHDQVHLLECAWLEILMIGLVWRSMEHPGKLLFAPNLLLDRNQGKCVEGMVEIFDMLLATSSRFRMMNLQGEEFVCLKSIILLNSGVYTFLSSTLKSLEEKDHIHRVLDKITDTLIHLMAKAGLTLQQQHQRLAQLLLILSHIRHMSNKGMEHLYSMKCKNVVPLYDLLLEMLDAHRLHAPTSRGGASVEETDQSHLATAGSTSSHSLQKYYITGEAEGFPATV

Results are given in words; binding and its absence hold for the method and conditions named. For some assays here: Binding seen in cells or lysates may run through a third protein. Some binding calls cover weakened binding; strength is not graded here. For some assays here: Tags and fused reporters may be left off the sequences shown.

In assay [1] the target is estrogen receptor alpha (ERα), endogenous in MCF-7/CCN1 cells (human (endogenous in MCF-7)) (UniProt P03372). The assay is described as follows: co-IP; whole cell extracts of MCF-7/CCN1 cells; ERα immunoprecipitated, blotted with anti-ERα and anti-CCN1 antibodies; nonspecific IgG as control.
In assay [2] the target is recombinant human estrogen receptor alpha (His-tag) (human) (UniProt P03372). The assay is described as follows: pull-down; purified GST-CCN1 incubated with ERα-His and Ni-NTA His•Bind resin beads; pH 7.35, 150 mM NaCl, 0.5 mM EDTA, 50 mM Tris-HCl, 0.5% NP-40, 4° C, 4 hours; 5 washes; bound proteins blotted; both purified.

B1: wild-type CCN1 (CYR61), stably overexpressed in MCF-7/CCN1 cells (protein, UniProt O00622 25-381)
chain: TCPAACHCPLEAPKCAPGVGLVRDGCGCCKVCAKQLNEDCSKTQPCDHTKGLECNFGASSTALKGICRAQSEGRPCEYNSRIYQNGESFQPNCKHQCTCIDGAVGCIPLCPQELSLPNLGCPNPRLVKVTGQCCEEWVCDEDSIKDPMEDQDGLLGKELGFDASEVELTRNNELIAVGKGSSLKRLPVFGMEPRILYNPLQGQKCIVQTTSWSQCSKTCGTGISTRVTNDNPECRLVKETRICEVRPCGQPVYSSLKKGKKCSKTKKSPEPVRFTYAGCLSVKKYRPKYCGSCVDGRCCTPQLTRTVKMRFRCEDGETFSKNVMMIQSCKCNYNCPHANEAAFPFYRLFNDIHKFRD
In the case of B1, in assay [1], the binding entry is “binds”.

B2: GST-CCN1 fusion protein (protein, UniProt O00622 25-381)
chain: TCPAACHCPLEAPKCAPGVGLVRDGCGCCKVCAKQLNEDCSKTQPCDHTKGLECNFGASSTALKGICRAQSEGRPCEYNSRIYQNGESFQPNCKHQCTCIDGAVGCIPLCPQELSLPNLGCPNPRLVKVTGQCCEEWVCDEDSIKDPMEDQDGLLGKELGFDASEVELTRNNELIAVGKGSSLKRLPVFGMEPRILYNPLQGQKCIVQTTSWSQCSKTCGTGISTRVTNDNPECRLVKETRICEVRPCGQPVYSSLKKGKKCSKTKKSPEPVRFTYAGCLSVKKYRPKYCGSCVDGRCCTPQLTRTVKMRFRCEDGETFSKNVMMIQSCKCNYNCPHANEAAFPFYRLFNDIHKFRD
As for B2, the binding entry in assay [2] is on record as “binds”.
